According to PubChem BioAssay AID1053119 (Broad Institute, 2014):
This list was built around the results that the source calls inconclusive (neither active nor inactive); the mix of calls is not that of the screen. Active and inactive are the calls of the source.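 The calls were made as follows: active = signal loss from cell killing with fitted potency at or below twice the top valid dose; inconclusive = flat drop of 30 to 70%, or unreliable curve fit; inactive = opposite direction, flat within 30%, or weaker potency.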

Assay: A549 cell cytotoxicity, dose response, cytotoxicity control, cherry-picks, 26 µM top dose (AID 1053119);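 also: 0% = neutral control wells and -100% = 10 µM mitoxantrone wells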
Settings: A549 viability, CellTiter-Glo ATP luminescence, 72 h; at 26 µM (top of the series) unless noted

Row | SMILES | activity change, negative = cytotoxicity
1 | CCS(=O)(=O)c1ncc(Cl)c(C(=O)Nc2ccc(S(=O)(=O)N3CCC(C)CC3)cc2)n1 | inconclusive: -49.9%
2 | CO[C@H]1CN(C)C(=O)c2ccc(NC(=O)Nc3ccc(Cl)c(Cl)c3)cc2OC[C@H](C)NC[C@H]1C | inconclusive: 2.54% [at 8 µM]
3 | CO[C@H]1CN(C)C(=O)c2ccc(NC(=O)Nc3ccc(Cl)c(Cl)c3)cc2OC[C@H](C)NC[C@@H]1C | inconclusive: -103%
4 | C[C@@H]1CN([C@H](C)CO)C(=O)c2cc(NC(=O)C3CCCCC3)ccc2O[C@H]1CN(C)Cc1ccc(-c2ccccc2)cc1 | inactive: -1.4%
5 | C[C@H]1CN([C@@H](C)CO)C(=O)c2cccc(NC(=O)Nc3ccc(C(F)(F)F)cc3)c2O[C@H]1CN(C)C(=O)Nc1cccc2ccccc12 | inconclusive: 4.41% [at 23.5 µM]
6 | O=C(Nc1ccccc1F)N1C[C@@H]2[C@H](c3ccccc31)[C@@H](CO)N2C(=O)C1CC1 | inconclusive: -12.7%
7 | Cc1ccc(-c2nc3ncccc3o2)cc1NC(=O)c1ccco1 | inactive: -0.724%
8 | CO[C@@H]1CN(C)C(=O)c2cc(NC(=O)Nc3cc(Cl)cc(Cl)c3)ccc2OC[C@H](C)NC[C@H]1C | inconclusive: 9.86% [at 8 µM]
9 | Cn1cc([N+](=O)[O-])c(C(=O)Nc2cc(Oc3ccccc3)cc([N+](=O)[O-])c2)n1 | inconclusive: -52%
10 | CC(C)(C)c1cc(Cl)c(O)c(NC(=S)NC(=O)c2cccnc2)c1 | inconclusive: -23.6%
11 | N#Cc1ccc(-c2ccc3c(c2)[C@H]2[C@H](CCN2S(=O)(=O)c2cccc(F)c2)[C@@H](CO)N3)cc1 | inconclusive: -35.8%
12 | COCC(=O)Nc1ccc2c(c1)C(=O)N(C)[C@H]1CC[C@@H](CC(=O)NCc3ccccc3Cl)O[C@@H]1CO2 | inconclusive: -10.6%

Single entries from the results shown:
Entry of C[C@@H]1CN([C@H](C)CO)C(=O)c2cc(NC(=O)C3CCCCC3)ccc2O[C@H]1CN(C)Cc1ccc(-c2ccccc2)cc1 under activity change, negative = cytotoxicity: inactive: -1.4%
Entry of CCS(=O)(=O)c1ncc(Cl)c(C(=O)Nc2ccc(S(=O)(=O)N3CCC(C)CC3)cc2)n1 under activity change, negative = cytotoxicity: inconclusive: -49.9%
